Earlier results, collected in patent US10813929B2, “Treating cancer with ATR inhibitors” (VERTEX PHARMACEUTICALS INCORPORATED, priority 2011, dated 2020).
For at least one compound, name, drawing or mass did not settle the structure.

Tested on: pancreatic cancer
Conditions: combined with gemcitabine; cited from earlier work

Cn1cncc1[C@@](N)(c1ccc(Cl)cc1)c1ccc2c(c1)c(-c1cccc(Cl)c1)cc(=O)n2C [Tipifarnib]
overall survival, result in words: did not show significant improvement in overall survival
